Paper PMC6658569

Key:
Test in all cases: MST; NfrA, HtrE or YhcD labelled with NHS ester fluorescent dye, 20 uM; serial dilutions of unlabelled human complement C3 in PBS; 5 min at room temperature; NanoTemper Monolith NT.115; both purified
NfrA (E. coli) = target: T1, NfrA (E. coli) (UniProt P31600)
T1 sequence (chain, NHS ester fluorescent dye (in the MST assay only)): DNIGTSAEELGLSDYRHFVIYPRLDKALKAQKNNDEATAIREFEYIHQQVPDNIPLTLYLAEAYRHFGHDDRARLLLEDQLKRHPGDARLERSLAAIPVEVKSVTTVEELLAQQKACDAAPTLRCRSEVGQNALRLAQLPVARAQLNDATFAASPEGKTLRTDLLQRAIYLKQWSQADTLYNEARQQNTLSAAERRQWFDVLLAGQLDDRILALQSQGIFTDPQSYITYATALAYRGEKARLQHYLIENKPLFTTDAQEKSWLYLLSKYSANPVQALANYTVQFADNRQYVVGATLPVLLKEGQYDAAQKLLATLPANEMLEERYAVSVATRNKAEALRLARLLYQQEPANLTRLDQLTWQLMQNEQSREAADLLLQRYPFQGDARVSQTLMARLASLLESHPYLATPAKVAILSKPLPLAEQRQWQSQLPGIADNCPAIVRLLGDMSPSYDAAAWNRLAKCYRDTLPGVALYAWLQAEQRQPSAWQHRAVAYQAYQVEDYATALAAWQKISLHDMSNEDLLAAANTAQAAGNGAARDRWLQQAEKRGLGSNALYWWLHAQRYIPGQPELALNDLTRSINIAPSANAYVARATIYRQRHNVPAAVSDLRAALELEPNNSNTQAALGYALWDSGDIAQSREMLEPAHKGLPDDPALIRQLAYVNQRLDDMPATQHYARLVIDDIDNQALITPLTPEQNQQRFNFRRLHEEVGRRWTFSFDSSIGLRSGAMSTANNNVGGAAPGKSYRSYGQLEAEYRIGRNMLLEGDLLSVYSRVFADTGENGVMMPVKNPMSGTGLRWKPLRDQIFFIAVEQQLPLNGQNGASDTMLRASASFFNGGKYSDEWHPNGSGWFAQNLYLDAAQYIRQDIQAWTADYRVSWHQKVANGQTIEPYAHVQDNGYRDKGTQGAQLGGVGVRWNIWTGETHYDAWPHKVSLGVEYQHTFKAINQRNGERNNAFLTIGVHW

YhcD (E. coli) = target: T2, YhcD (E. coli) (UniProt P45420)
T2 sequence (chain, NHS ester fluorescent dye (in the MST assay only)): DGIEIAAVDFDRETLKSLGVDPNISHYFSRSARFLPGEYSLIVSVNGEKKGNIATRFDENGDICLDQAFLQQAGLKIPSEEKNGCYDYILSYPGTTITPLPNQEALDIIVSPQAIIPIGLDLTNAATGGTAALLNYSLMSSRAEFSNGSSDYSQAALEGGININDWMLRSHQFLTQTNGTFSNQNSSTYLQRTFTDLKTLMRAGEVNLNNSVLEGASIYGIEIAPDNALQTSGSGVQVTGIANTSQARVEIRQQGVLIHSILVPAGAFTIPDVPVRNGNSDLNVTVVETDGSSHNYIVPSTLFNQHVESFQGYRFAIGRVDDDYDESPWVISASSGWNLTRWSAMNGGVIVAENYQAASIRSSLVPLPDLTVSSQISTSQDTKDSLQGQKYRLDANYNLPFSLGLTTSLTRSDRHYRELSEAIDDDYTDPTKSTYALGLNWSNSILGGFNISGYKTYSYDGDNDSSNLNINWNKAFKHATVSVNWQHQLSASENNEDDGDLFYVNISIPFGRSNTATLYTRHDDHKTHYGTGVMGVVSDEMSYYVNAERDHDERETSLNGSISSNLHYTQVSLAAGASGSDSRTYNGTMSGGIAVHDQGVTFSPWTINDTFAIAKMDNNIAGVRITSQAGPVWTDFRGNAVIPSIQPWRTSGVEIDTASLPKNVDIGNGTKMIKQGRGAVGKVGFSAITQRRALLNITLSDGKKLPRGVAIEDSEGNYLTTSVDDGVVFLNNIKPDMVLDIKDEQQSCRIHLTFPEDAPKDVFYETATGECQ

HtrE (E. coli) = target: T3, HtrE (E. coli) (UniProt P33129)
T3 sequence (chain, NHS ester fluorescent dye (in the MST assay only)): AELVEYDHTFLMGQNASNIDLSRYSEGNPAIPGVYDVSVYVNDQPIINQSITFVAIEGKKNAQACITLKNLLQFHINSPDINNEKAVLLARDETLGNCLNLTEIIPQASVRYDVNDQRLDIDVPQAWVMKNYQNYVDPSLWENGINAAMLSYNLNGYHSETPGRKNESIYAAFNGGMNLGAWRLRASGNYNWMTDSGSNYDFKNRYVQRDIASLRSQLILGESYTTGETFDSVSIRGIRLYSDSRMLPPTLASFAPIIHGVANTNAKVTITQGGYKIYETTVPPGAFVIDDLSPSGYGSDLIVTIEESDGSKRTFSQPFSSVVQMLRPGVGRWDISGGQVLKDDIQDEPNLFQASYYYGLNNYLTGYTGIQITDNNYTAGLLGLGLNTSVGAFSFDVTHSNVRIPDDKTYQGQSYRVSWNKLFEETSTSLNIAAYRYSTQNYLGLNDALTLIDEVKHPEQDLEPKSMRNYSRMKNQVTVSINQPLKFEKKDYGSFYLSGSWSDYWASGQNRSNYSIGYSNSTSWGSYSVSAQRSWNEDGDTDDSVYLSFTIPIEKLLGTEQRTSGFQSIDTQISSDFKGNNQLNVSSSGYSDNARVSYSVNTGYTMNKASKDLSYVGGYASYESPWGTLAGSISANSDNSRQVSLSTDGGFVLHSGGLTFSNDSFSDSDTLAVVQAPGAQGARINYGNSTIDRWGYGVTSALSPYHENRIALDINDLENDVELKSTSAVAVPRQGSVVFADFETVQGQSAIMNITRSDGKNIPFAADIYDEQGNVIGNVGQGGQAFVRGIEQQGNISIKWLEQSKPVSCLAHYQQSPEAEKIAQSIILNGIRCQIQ

Measured: binding

human complement C3
binds: NfrA (E. coli) | YhcD (E. coli) | HtrE (E. coli)

No constants are given. Whether binding was seen depends on the method and setting. Binding can be weak; no strength is given.
